Results reported in the supplement of paper PMC4604168 (melanoma cell lines).
This is one part of the list. Single values are uncertain, as repeats are few or missing.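 Cells were imaged in 1,536-well plates, and nuclei stained with an antibody against cleaved PARP were counted against all DNA-stained nuclei to give the apoptosis fraction. Screening doses were chosen to leave most cells alive, and resting and induced cleaved-PARP levels differ strongly between cell lines.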

These molecules were tested on RPMI7951 (assay: cleaved PARP positive nuclei fraction relative to DMSO control; melanoma cells; higher = more apoptosis). Conditions: library dose: low library concentration; 72 h.

Structure (SMILES) | cleaved PARP positive nuclei fraction
NC1(c2ccc(-c3nc4ccn5c(=O)[nH]nc5c4cc3-c3ccccc3)cc2)CCC1 + O=C(Oc1ccc([N+](=O)[O-])cc1)N1CCC(C(O)(c2ccc3c(c2)OCO3)c2ccc3c(c2)OCO3)CC1 [JZL184] (first compound 0.4 µM, partner dose 1 µM) | 198%
COc1ccc(C2=N[C@@H](c3ccc(Cl)cc3)[C@@H](c3ccc(Cl)cc3)N2C(=O)N2CCNC(=O)C2)c(OC(C)C)c1 [Nutlin-3] + C/C(O)=C(\C#N)C(=O)Nc1cc(Br)ccc1Br [LFM-A13] (first compound 0.1 µM, partner dose 2 µM) | 137%
O=C(/C=C/c1cccnc1)NCCCCC1CCN(C(=O)c2ccccc2)CC1 + Cc1cc(SCc2sc(-c3ccc(C(F)(F)F)c(F)c3)nc2C)ccc1OCC(=O)O [GW0742] (first compound 0.01 µM, partner dose 2 µM) | 65.2%
C[As](C)SC[C@H](NC(=O)CC[C@H](N)C(=O)O)C(=O)NCC(=O)O [Darinaparsin] + NC(=O)Nc1cc(-c2cccc(F)c2)sc1C(=O)N[C@H]1CCCNC1 [AZD7762] (first compound 0.4 µM, partner dose 0.02 µM) | 105%
C[As](C)SC[C@H](NC(=O)CC[C@H](N)C(=O)O)C(=O)NCC(=O)O [Darinaparsin] + C[C@@H]1CCN(C(=O)CC#N)C[C@@H]1N(C)c1ncnc2[nH]ccc12 [CP690550] (first compound 0.4 µM, partner dose 1 µM) | 79.1%
C[C@]1(O)C[C@@H](c2nc(-c3ccc4ccc(-c5ccccc5)nc4c3)c3c(N)nccn32)C1 + C/C(O)=C(\C#N)C(=O)Nc1cc(Br)ccc1Br [LFM-A13] (first compound 0.4 µM, partner dose 2 µM) | 48.8%
N.N.[Cl][Pt][Cl] [cisplatin] + Cc1cc([N+](=O)[O-])ccc1NS(=O)(=O)c1cc(Cl)ccc1Cl [FH535] (first compound 1.6 µM, partner dose 1 µM) | 72%
Cn1cc(C2=C(c3cn(C4CCN(Cc5ccccn5)CC4)c4ccccc34)C(=O)NC2=O)c2ccccc21 [Enzastaurin] + O=C1NC(=O)/C(=C/c2ccc(-c3ccc(F)cc3O)o2)S1 [AS252424] (first compound 0.8 µM, partner dose 1 µM) | 64.2%
C=CCNC1=C2C[C@@H](C)C[C@H](OC)[C@H](O)[C@@H](C)/C=C(\C)[C@H](OC(N)=O)[C@@H](OC)/C=C\C=C(/C)C(=O)NC(=CC1=O)C2=O [Tanespimycin] + Cc1cc(SCc2sc(-c3ccc(C(F)(F)F)c(F)c3)nc2C)ccc1OCC(=O)O [GW0742] (first compound 0.002 µM, partner dose 2 µM) | 324%
O=C(O)c1ccc2c(c1)nc(Nc1cccc(Cl)c1)c1ccncc12 + O=C(Oc1ccc([N+](=O)[O-])cc1)N1CCC(C(O)(c2ccc3c(c2)OCO3)c2ccc3c(c2)OCO3)CC1 [JZL184] (first compound 0.4 µM, partner dose 1 µM) | 37.9%
N.N.[Cl][Pt][Cl] [cisplatin] + Cc1cc(N2CCOCC2)cc2[nH]c(-c3c(NC[C@@H](O)c4cccc(Cl)c4)cc[nH]c3=O)nc12 [BMS536924] (first compound 1.6 µM, partner dose 0.2 µM) | 47.1%
CC1(C)CCC(c2ccc(Cl)cc2)=C(CN2CCN(c3ccc(C(=O)NS(=O)(=O)c4ccc(N[C@H](CCN5CCOCC5)CSc5ccccc5)c(S(=O)(=O)C(F)(F)F)c4)cc3)CC2)C1 + O=C(Oc1ccc([N+](=O)[O-])cc1)N1CCC(C(O)(c2ccc3c(c2)OCO3)c2ccc3c(c2)OCO3)CC1 [JZL184] (first compound 0.4 µM, partner dose 1 µM) | 146%
Cc1cc(Nc2cc(N3CCN(C)CC3)nc(/C=C/c3ccccc3)n2)n[nH]1 + C/C(O)=C(\C#N)C(=O)Nc1cc(Br)ccc1Br [LFM-A13] (first compound 0.04 µM, partner dose 2 µM) | 129%
N.N.[Cl][Pt][Cl] [cisplatin] + OCCn1cc(-c2cnc3nnn(Cc4ccc5ncccc5c4)c3n2)cn1 [PF04217903] (first compound 1.6 µM, partner dose 1 µM) | 50.3%
Cn1cc(C2=C(c3cn(C4CCN(Cc5ccccn5)CC4)c4ccccc34)C(=O)NC2=O)c2ccccc21 [Enzastaurin] + COc1ccc(COc2ccc(Cc3cnc(N)nc3N)cc2OC)cc1 [GW2580] (first compound 0.8 µM, partner dose 1 µM) | 53.4%
Cn1cc(C2=C(c3cn(C4CCN(Cc5ccccn5)CC4)c4ccccc34)C(=O)NC2=O)c2ccccc21 [Enzastaurin] + c1cc(-c2cnn3cc(-c4ccc(OCCN5CCCCC5)cc4)cnc23)ccn1 [Dorsomorphin] (first compound 0.8 µM, partner dose 0.4 µM) | 62.5%
C[As](C)SC[C@H](NC(=O)CC[C@H](N)C(=O)O)C(=O)NCC(=O)O [Darinaparsin] + C=CCn1c(=O)c2cnc(Nc3ccc(N4CCN(C)CC4)cc3)nc2n1-c1cccc(C(C)(C)O)n1 [MK1775] (first compound 0.4 µM, partner dose 0.02 µM) | 50%
Cn1cc(C2=C(c3cn(C4CCN(Cc5ccccn5)CC4)c4ccccc34)C(=O)NC2=O)c2ccccc21 [Enzastaurin] + OCCn1cc(-c2cnc3nnn(Cc4ccc5ncccc5c4)c3n2)cn1 [PF04217903] (first compound 0.8 µM, partner dose 1 µM) | 286%
N.N.[Cl][Pt][Cl] [cisplatin] + CN(NC(=O)CC(=O)NN(C)C(=S)c1ccccc1)C(=S)c1ccccc1 [STA4783] (first compound 1.6 µM, partner dose 0.006 µM) | 226%
C=C(c1ccc(C(=O)O)cc1)c1cc2c(cc1C)C(C)(C)CCC2(C)C [Bexarotene] + O=C(Oc1ccc([N+](=O)[O-])cc1)N1CCC(C(O)(c2ccc3c(c2)OCO3)c2ccc3c(c2)OCO3)CC1 [JZL184] (first compound 2 µM, partner dose 1 µM) | 32.1%
Cn1sc(=O)n(Cc2ccccc2)c1=O + O=C(Oc1ccc([N+](=O)[O-])cc1)N1CCC(C(O)(c2ccc3c(c2)OCO3)c2ccc3c(c2)OCO3)CC1 [JZL184] (first compound 0.4 µM, partner dose 1 µM) | 70.2%
C[As](C)SC[C@H](NC(=O)CC[C@H](N)C(=O)O)C(=O)NCC(=O)O [Darinaparsin] + COc1cc(Nc2ncc(F)c(Nc3ccc4c(n3)NC(=O)C(C)(C)O4)n2)cc(OC)c1OC [Tamatinib] (first compound 0.4 µM, partner dose 0.4 µM) | 117%
CNC(=O)c1cc(Oc2ccc(NC(=O)Nc3ccc(Cl)c(C(F)(F)F)c3)cc2)ccn1 [sorafenib] + Cc1cc(SCc2sc(-c3ccc(C(F)(F)F)c(F)c3)nc2C)ccc1OCC(=O)O [GW0742] (first compound 0.4 µM, partner dose 2 µM) | 70.7%
Cn1cc(C2=C(c3cn(C4CCN(Cc5ccccn5)CC4)c4ccccc34)C(=O)NC2=O)c2ccccc21 [Enzastaurin] + COC(=O)c1sccc1S(=O)(=O)Nc1ccc(Nc2ccccc2)cc1OC [GSK0660] (first compound 0.8 µM, partner dose 1 µM) | 222%
COc1cc([C@@H]2c3cc4c(cc3[C@@H](O[C@@H]3O[C@@H]5CO[C@@H](C)O[C@H]5[C@H](O)[C@H]3O)[C@H]3COC(=O)[C@H]23)OCO4)cc(OC)c1O [etoposide] + C/C(O)=C(\C#N)C(=O)Nc1cc(Br)ccc1Br [LFM-A13] (first compound 0.02 µM, partner dose 2 µM) | 39.4%
Cn1cnc2c(F)c(Nc3ccc(Br)cc3Cl)c(C(=O)NOCCO)cc21 [selumetinib] + O=C(Oc1ccc([N+](=O)[O-])cc1)N1CCC(C(O)(c2ccc3c(c2)OCO3)c2ccc3c(c2)OCO3)CC1 [JZL184] (first compound 0.015 µM, partner dose 1 µM) | 46.6%
Nc1ncn([C@H]2C[C@H](O)[C@@H](CO)O2)c(=O)n1 [decitabine] + O=C(Oc1ccc([N+](=O)[O-])cc1)N1CCC(C(O)(c2ccc3c(c2)OCO3)c2ccc3c(c2)OCO3)CC1 [JZL184] (first compound 0.1 µM, partner dose 1 µM) | 90.3%
C[As](C)SC[C@H](NC(=O)CC[C@H](N)C(=O)O)C(=O)NCC(=O)O [Darinaparsin] + O=C(O)c1ccc(-c2c[nH]c3ncc(-c4ccccc4)cc23)cc1C1CCCC1 [GSK650394] (first compound 0.4 µM, partner dose 0.16 µM) | 94.4%
O=C(Nc1cc(C(F)(F)F)cc(C(F)(F)F)c1)c1cc(Cl)ccc1O + O=C(Oc1ccc([N+](=O)[O-])cc1)N1CCC(C(O)(c2ccc3c(c2)OCO3)c2ccc3c(c2)OCO3)CC1 [JZL184] (first compound 0.016 µM, partner dose 1 µM) | 33.4%
Cn1cc(C2=C(c3cn(C4CCN(Cc5ccccn5)CC4)c4ccccc34)C(=O)NC2=O)c2ccccc21 [Enzastaurin] + O=C(Oc1ccc([N+](=O)[O-])cc1)N1CCC(C(O)(c2ccc3c(c2)OCO3)c2ccc3c(c2)OCO3)CC1 [JZL184] (first compound 0.8 µM, partner dose 1 µM) | 106%

Two consecutive entries out of the list so far, for reference:
Structure (SMILES) | cleaved PARP positive nuclei fraction
CNC(=O)c1cc(Oc2ccc(NC(=O)Nc3ccc(Cl)c(C(F)(F)F)c3)cc2)ccn1 [sorafenib] + Cc1cc(SCc2sc(-c3ccc(C(F)(F)F)c(F)c3)nc2C)ccc1OCC(=O)O [GW0742] (first compound 0.4 µM, partner dose 2 µM) | 70.7%
Cn1cc(C2=C(c3cn(C4CCN(Cc5ccccn5)CC4)c4ccccc34)C(=O)NC2=O)c2ccccc21 [Enzastaurin] + COC(=O)c1sccc1S(=O)(=O)Nc1ccc(Nc2ccccc2)cc1OC [GSK0660] (first compound 0.8 µM, partner dose 1 µM) | 222%
